In PubChem BioAssay AID493014 (National Center for Advancing Translational Sciences (NCATS), 2011):
The other results are listed elsewhere or left out. The main result of the screen is listed elsewhere. These columns were measured beside it and carry no call. Most of these compounds were active or inconclusive in the main read-out, so they are no random draw. Potencies come from curve fits of mixed quality, noted in brackets.

Test: qHTS Assay to Find Inhibitors of Chronic Active B-Cell Receptor Signaling
Conditions: ABC-DLBCL IkBa-CBG/CBR reporter, luminescence ratio (green luciferase fused to IkBa over red control in TMD8 lymphoma cells), 4 h
Outline: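 TMD8 ABC-DLBCL cells carrying doxycycline-inducible green luciferase fused to IkappaBalpha plus unfused red luciferase were exposed to compounds (up to 46 uM) for 4 hrs at 37C. Activity came from the overlap-corrected green/red luminescence ratio.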

[1] = measured here: CBR red luminescence, cell number

SMILES | AC50 [1] | AC50 (measured here: IkBa-CBG green luminescence)
O=C(Nc1sc2c(c1C(=O)O)CCCCC2)c1ccccc1 | 0.112 µM [falling, full curve, poor fit] | 
C=CCn1c(SCC(N)=O)nc(C)cc1=O | 20.6 µM [rising, single point] | 
Cc1cc(C)n(-c2ccc(C(=O)OCc3nnc(-c4ccccc4)o3)cc2)n1 | 10 µM [rising, partial curve, poor fit] | 
CN(c1ccc(C(=O)NCCc2ccccc2)cc1)S(C)(=O)=O | 23.1 µM [rising, partial curve, poor fit] | 
O=C(c1ccc(Cl)cc1)c1cc([N+](=O)[O-])ccc1N1CCOCC1 |  | 11.2 µM [falling, partial curve]
CCOC(=O)c1cnc(-c2ccccc2)nc1-c1ccccc1 | 20 µM [rising, single point] | 
O=[N+]([O-])c1ccc2sc(SCc3nc4ccccn4c3Br)nc2c1 | 6.51 µM [falling, partial curve, poor fit] | 
COc1ccc(C(=O)OCC(=O)Nc2ncc([N+](=O)[O-])s2)cc1OC | 20.6 µM [falling, single point] | 
CNC(=S)N1CCN(c2ccccc2OC)CC1 | 14.1 µM [rising, single point] | 
COc1ccccc1OCC(=O)N/N=C/c1cccc2cccnc12 | 20 µM [falling, single point] | 
O=C(COC(=O)C1=COCCO1)Nc1ncc(Cl)cc1Cl | 29.1 µM [rising, single point] | 
S=C1CCC(c2ccc(Br)cc2)=NN1c1ccccc1 | 0.891 µM [rising, full curve] | 
CCOC(=O)c1c(CSc2ccccc2)n(C)c2cc(Br)c(OC)c(O)c12 | 3.16 µM [rising, full curve, poor fit] | 
CC1(c2nnc(-c3ccc(F)cc3)o2)CC(c2ccc(Cl)cc2)=NO1 (stereo not drawn) | 3.98 µM [rising, partial curve, poor fit] | 
Cn1cccc1C(=O)NCCc1ccc(Cl)cc1 | 8.91 µM [falling, partial curve, poor fit] | 
O=S(=O)(c1c(F)cccc1F)N1CCN(C(=S)NCc2ccc3c(c2)OCO3)CC1 | 1.78 µM [rising, partial curve, poor fit] | 
Cn1c(=O)c2c(nc(CN3CCN(C(=O)c4ccco4)CC3)n2CCc2ccccc2)n(C)c1=O | 14.1 µM [rising, single point] | 
O=C(NC(=S)Nc1ccccc1N1CCOCC1)c1cccc([N+](=O)[O-])c1 | 10 µM [rising, partial curve, poor fit] | 

Given with each value named: entries from further up
Cc1cc(C)n(-c2ccc(C(=O)OCc3nnc(-c4ccccc4)o3)cc2)n1
  AC50 [1]: 10 µM [rising, partial curve, poor fit]
CN(c1ccc(C(=O)NCCc2ccccc2)cc1)S(C)(=O)=O
  AC50 [1]: 23.1 µM [rising, partial curve, poor fit]
